Results: the supplement of paper PMC10032668
The list shows a part of the results. Only hits are listed; about a third recur on repeated control peptides.

The chains behind the UniProt entries cited, without tags or fusion partners.
CALR, P27797, UniProt P27797, whole entry: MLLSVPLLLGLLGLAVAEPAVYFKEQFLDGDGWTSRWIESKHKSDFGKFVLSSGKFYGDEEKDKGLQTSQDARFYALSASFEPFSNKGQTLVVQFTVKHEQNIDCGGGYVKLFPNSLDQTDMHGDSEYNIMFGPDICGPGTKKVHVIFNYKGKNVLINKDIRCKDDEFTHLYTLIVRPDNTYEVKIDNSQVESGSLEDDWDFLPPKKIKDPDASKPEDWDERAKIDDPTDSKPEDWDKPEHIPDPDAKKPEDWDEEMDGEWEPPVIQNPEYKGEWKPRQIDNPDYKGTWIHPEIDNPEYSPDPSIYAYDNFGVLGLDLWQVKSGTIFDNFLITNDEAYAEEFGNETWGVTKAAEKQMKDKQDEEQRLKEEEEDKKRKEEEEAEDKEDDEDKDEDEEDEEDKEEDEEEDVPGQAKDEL
MYO1C, O00159, UniProt O00159, whole entry: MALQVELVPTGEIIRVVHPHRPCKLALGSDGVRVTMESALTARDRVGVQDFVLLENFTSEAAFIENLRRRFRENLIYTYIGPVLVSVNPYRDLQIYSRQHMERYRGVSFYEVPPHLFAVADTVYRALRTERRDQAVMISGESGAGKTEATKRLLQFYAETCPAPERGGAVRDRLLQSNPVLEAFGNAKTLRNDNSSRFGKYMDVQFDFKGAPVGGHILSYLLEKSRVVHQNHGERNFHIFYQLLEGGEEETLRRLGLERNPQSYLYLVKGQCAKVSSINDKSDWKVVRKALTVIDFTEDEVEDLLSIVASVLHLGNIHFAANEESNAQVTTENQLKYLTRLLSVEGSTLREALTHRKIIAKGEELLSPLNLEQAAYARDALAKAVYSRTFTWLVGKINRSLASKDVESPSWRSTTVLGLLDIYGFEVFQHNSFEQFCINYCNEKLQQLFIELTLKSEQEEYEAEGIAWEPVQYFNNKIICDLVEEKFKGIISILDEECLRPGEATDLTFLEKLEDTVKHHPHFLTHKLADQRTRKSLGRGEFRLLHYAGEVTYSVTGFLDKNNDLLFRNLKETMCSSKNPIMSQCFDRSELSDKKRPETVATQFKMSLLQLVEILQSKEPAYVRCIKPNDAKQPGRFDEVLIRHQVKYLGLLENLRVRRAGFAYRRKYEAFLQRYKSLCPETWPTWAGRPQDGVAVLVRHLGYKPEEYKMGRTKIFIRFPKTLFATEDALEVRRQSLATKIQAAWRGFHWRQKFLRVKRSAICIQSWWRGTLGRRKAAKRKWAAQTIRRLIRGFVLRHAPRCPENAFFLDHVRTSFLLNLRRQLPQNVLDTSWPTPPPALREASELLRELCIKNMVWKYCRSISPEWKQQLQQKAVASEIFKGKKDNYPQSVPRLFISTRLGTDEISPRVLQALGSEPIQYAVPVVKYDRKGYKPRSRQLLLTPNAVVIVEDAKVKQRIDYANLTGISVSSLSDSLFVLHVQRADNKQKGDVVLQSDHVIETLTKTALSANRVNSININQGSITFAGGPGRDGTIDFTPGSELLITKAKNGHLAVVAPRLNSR

Columns and labels:
Assay in all cases: PRISMA enrichment of interactor (LFQ) in peptide spot vs all other peptide spots (log2 fold change); higher = stronger / more specific binding of the interactor to the peptide
[1] = target: BCAS2, O75934
Experimental: (§1)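 PRISMA: 15-aa overlapping tiles (offset 8 aa) of 60 microproteins, plus SOS1/GLUT1 control peptides, were spot-synthesized on cellulose membranes in triplicate. Membranes were incubated with benzonase-treated HEK293T lysate, and bound proteins were identified by LC-MS/MS with LFQ. Enrichment is the log2 fold change of each protein in one spot versus all other spots. Only interactors passing the significance cutoff are listed.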

[2] = target: CNOT2, Q9NZN8
Experimental: as §1

[3] = target: COPB1, P53618
Experimental: as §1

[4] = target: DDX39B, Q13838
Experimental: as §1

[5] = target: ENO1, P06733
Experimental: as §1

[6] = target: ERAL1, O75616
Experimental: as §1

[7] = target: NAMPT, P43490
Experimental: as §1

[8] = target: NASP, P49321
Experimental: as §1

[9] = target: NFRKB, Q6P4R8
Experimental: as §1

[10] = target: PAF1, Q8N7H5
Experimental: as §1

[11] = target: POLR2J3, Q9H1A7
Experimental: as §1

[12] = target: POP1, Q99575
Experimental: as §1

[13] = target: RPS17, P08708
Experimental: as §1

[14] = target: RRP1B, Q14684
Experimental: as §1

[15] = target: SMARCA5, O60264
Experimental: as §1

[16] = target: TOR1AIP1, Q5JTV8
Experimental: as §1

[17] = target: XPO7, Q9UIA9
Experimental: as §1

[18] = target: XRCC6, P12956
Experimental: as §1

[19] = target: BANF1, O75531
Experimental: as §1

[20] = target: RPL10, P27635
Experimental: as §1

[21] = target: SERF2, P84101
Experimental: as §1

[22] = target: BOD1, Q96IK1
Experimental: as §1

[23] = target: CACNA1D, Q01668
Experimental: as §1

[24] = target: CNOT3, O75175
Experimental: as §1

[25] = target: DRG1, Q9Y295
Experimental: as §1

[26] = target: FADS1, O60427
Experimental: as §1

[27] = target: MACF1
Experimental: as §1

[28] = target: PDK1, Q15118
Experimental: as §1

[29] = target: PFKM, P08237
Experimental: as §1

[30] = target: SLC35E1, Q96K37
Experimental: as §1

[31] = target: TRAM1, Q15629
Experimental: as §1

[32] = substrate: BCCIP, Q9P287
Experimental: as §1

[33] = target: BTF3L4, Q96K17
Experimental: as §1

[34] = target: CALR, P27797
Experimental: as §1

[35] = target: CORO1A, P31146
Experimental: as §1

[36] = target: EIF3B, P55884
Experimental: as §1

[37] = target: EIF3F, O00303
Experimental: as §1

[38] = target: EIF3H, O15372
Experimental: as §1

[39] = target: ELOVL5, Q9NYP7
Experimental: as §1

[40] = target: GTF2E2, P29084
Experimental: as §1

[41] = target: GTF2F1, P35269
Experimental: as §1

[42] = target: HAGH, Q16775
Experimental: as §1

[43] = target: HMGB1, P09429
Experimental: as §1

[44] = target: HOMER2, Q9NSB8
Experimental: as §1

[45] = target: HTT, P42858
Experimental: as §1

[46] = target: LSM5, Q9Y4Y9
Experimental: as §1

[47] = target: MRM2, Q9UI43
Experimental: as §1

[48] = target: MYO1C, O00159
Experimental: as §1

[49] = target: NAF1, Q96HR8
Experimental: as §1

[50] = target: NAP1L1, P55209
Experimental: as §1

[51] = target: NUCKS1, Q9H1E3
Experimental: as §1

[52] = target: OGT, O15294
Experimental: as §1

[53] = target: PTMA, P06454
Experimental: as §1

[54] = target: SAAL1, Q96ER3
Experimental: as §1

[55] = target: SDF2, Q99470
Experimental: as §1

[56] = target: SLC25A24, Q6NUK1
Experimental: as §1

[57] = target: SURF6, O75683
Experimental: as §1

[58] = target: ZFC3H1, O60293
Experimental: as §1

CPRLLQPLLGLMGTG [ABR]
PRISMA enrichment of interactor (log2) [1]: 4.89 | PRISMA enrichment of interactor (log2) [2]: 7.93 | PRISMA enrichment of interactor (log2) [3]: 6.23 | PRISMA enrichment of interactor (log2) [4]: 7.37 | PRISMA enrichment of interactor (log2) [5]: 5.4 | PRISMA enrichment of interactor (log2) [6]: 4.93 | PRISMA enrichment of interactor (log2) [7]: 7.47 | PRISMA enrichment of interactor (log2) [8]: 5.13 | PRISMA enrichment of interactor (log2) [9]: 8.22 | PRISMA enrichment of interactor (log2) [10]: 7.38 | PRISMA enrichment of interactor (log2) [11]: 4.95 | PRISMA enrichment of interactor (log2) [12]: 9.95 | PRISMA enrichment of interactor (log2) [13]: 4.61 | PRISMA enrichment of interactor (log2) [14]: 4.44 | PRISMA enrichment of interactor (log2) [15]: 6.36 | PRISMA enrichment of interactor (log2) [16]: 6.66 | PRISMA enrichment of interactor (log2) [17]: 6.35 | PRISMA enrichment of interactor (log2) [18]: 5.33

DSEDKEDATGNVEMK [CRNDE]
PRISMA enrichment of interactor (log2) [19]: 6.31 | PRISMA enrichment of interactor (log2) [20]: 4.63 | PRISMA enrichment of interactor (log2) [21]: 8.06

PQDHSAPANSMQLTL [DANCR]
PRISMA enrichment of interactor (log2) [19]: 5.32 | PRISMA enrichment of interactor (log2) [22]: 4.75 | PRISMA enrichment of interactor (log2) [23]: 9.92 | PRISMA enrichment of interactor (log2) [24]: 4.87 | PRISMA enrichment of interactor (log2) [25]: 4.33 | PRISMA enrichment of interactor (log2) [26]: 4.24 | PRISMA enrichment of interactor (log2) [27]: 10.2 | PRISMA enrichment of interactor (log2) [28]: 7.06 | PRISMA enrichment of interactor (log2) [29]: 4.65 | PRISMA enrichment of interactor (log2) [30]: 3.65 | PRISMA enrichment of interactor (log2) [31]: 5.28

VSRLSPTEKKKKKMS [ZEB2]
PRISMA enrichment of interactor (log2) [32]: 4.36 | PRISMA enrichment of interactor (log2) [33]: 4.23 | PRISMA enrichment of interactor (log2) [34]: 5.36 | PRISMA enrichment of interactor (log2) [35]: 3.76 | PRISMA enrichment of interactor (log2) [36]: 4.57 | PRISMA enrichment of interactor (log2) [37]: 4.58 | PRISMA enrichment of interactor (log2) [38]: 4.94 | PRISMA enrichment of interactor (log2) [39]: 4.89 | PRISMA enrichment of interactor (log2) [40]: 6.34 | PRISMA enrichment of interactor (log2) [41]: 4.49 | PRISMA enrichment of interactor (log2) [42]: 10.7 | PRISMA enrichment of interactor (log2) [43]: 6.06 | PRISMA enrichment of interactor (log2) [44]: 5.03 | PRISMA enrichment of interactor (log2) [45]: 4.04 | PRISMA enrichment of interactor (log2) [46]: 4.02 | PRISMA enrichment of interactor (log2) [47]: 4.58 | PRISMA enrichment of interactor (log2) [48]: 6.19 | PRISMA enrichment of interactor (log2) [49]: 5.44 | PRISMA enrichment of interactor (log2) [50]: 5.72 | PRISMA enrichment of interactor (log2) [51]: 3.98 | PRISMA enrichment of interactor (log2) [52]: 5.53 | PRISMA enrichment of interactor (log2) [53]: 7.58 | PRISMA enrichment of interactor (log2) [54]: 4.23 | PRISMA enrichment of interactor (log2) [55]: 6.71 | PRISMA enrichment of interactor (log2) [56]: 4.56 | PRISMA enrichment of interactor (log2) [57]: 5.86 | PRISMA enrichment of interactor (log2) [58]: 5.25
